About 210 (0.4%) of roughly 52,000 sequences were called active.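 The calls were made as follows: active = gene whose silencing raises cell survival under the drug, median off-target-corrected z-score across its silencing RNAs 2 or more; inactive = the rest.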 The list shows a part of the results.

The nature of this assay: Resistance to Poly (ADP-Ribose) Polymerase inhibitor: Gene Identification via Genome-wide siRNA Screen. Particulars: mouse BRCA2 R2336H ES cells, olaparib, CellTiter-Glo viability; hits give high values. In a few lines: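 Mouse BRCA2 R2336H ES cells were reverse-transfected with siRNA (20 nM final), treated at 48 h with 500 nM olaparib, and read by CellTiter-Glo after 72 h. Scores: MAD-based z per siRNA, median per gene, seed off-target correction.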
A general note: ATP-based viability assays read luminescence as a measure of living cells.
Consider GGCUAUGCAAUACCAGGUCTT against BC004012, for which the z-score is inactive: -0.51. Consider GGACCACUCUGAUGAAGAGTT against Pou3f4, for which the z-score is inactive: -2.16. For GGAUGAGGACAAGUGCUCUTT against Agpat4 the value was inactive: 0.0493; for GCACAAAAUUCACUGUUAGTT against Olfr112, inactive: 2.16; for “GGCUAGUACCAACAUGACCTT against 1600015I10Rik”, inactive: 2.25. For GGAGGAGACUCAGCAGAUUTT against Gzmn the value was inactive: -1.95; for “GGCUUGGUGGGACAGAUAUTT against 5730568A12Rik”, inactive: -1.4; for “CGUAAUGCAUUACCUCAAUTT against 9630019K15Rik”, inactive: -0.645. Consider GGACAGCCAGUAAAUACAUTT against Igsf7, for which the z-score was inactive: 1.26. For GGAGAAUUAGCCAACACAGTT against Ywhah the value was inactive: 1.03; for GGAUUUCAAGCAAGAUUACTT against Mfn1, inactive: -0.00662. As for GCCUCUGAGAUAAAAUUUGTT against Copeb, the z-score was inactive: -0.419.

With CGAUUGCUUUUCGAGACUGTT against Olfr1404, the z-score was inactive: -1.63. For “GGUUAAAACCUCUUUCUGATT against 2610017G09Rik” the value was inactive: 0.85. In the case of GGGACUACCUGAAUAAUGUTT against Tm4sf12, the z-score was inactive: 0.6. In the case of GCCGGGUUCGAGAGUUAAGTT against Ptpn11, the z-score was inactive: -0.376. Turning to GGUGUUGAACAAAUUAACUTT against LOC226169, the z-score was inactive: 1.93.

As to GAACAUGGAAAGCAGCAUUTT against Sprrl10, the z-score is inactive: 0.471. For “CCUUUGUGCAAUGCUACACTT against 4921517D21Rik”, the z-score was inactive: 0.593. For GGAUCAGCAUGUUUGGAUUTT against Olfr653 the value was inactive: -0.23. For the sequence “GCUCCAAGUCAAGGAAAAUTT against 6030423D04Rik”, the z-score is inactive: -2.53. As for GCACUUUAAAAGAAUCACUTT against Slc2a12, the z-score is inactive: -0.238. For “GGAGAGACACUUUUUGAAATT against 4932413O14Rik” the value was inactive: 0.201. Consider GCUGUGUUCUAACUAACUATT against Aldh9a1, for which the z-score is inactive: 0.507. Take GGACAAACAAGUGAAAUACTT against Morf4l1: the z-score is inactive: -0.354. For the sequence “GGGAAAAUUUCCUCUGACUTT against 2200003E03Rik”, the z-score was inactive: -2.1. For “GCAUUCGAAGCUCUUCUAATT against 4930474M22Rik” the value was inactive: -0.432; for GGGAUACAAUGUAACAUACTT against L1cam, inactive: 0.404; for CCGAGUAAGAAGGACGAUATT against Sh3tc1, inactive: 1.05.

As to CCUGGCAGUAGGUUUGUAATT against Plcd3, the z-score was inactive: -0.553. For GGCACUAGGUGGAGUCAUUTT against Slco1b2 the value was inactive: -0.273; for GGUUAAAGGAGCAGUCUAUTT against Dbn1, inactive: -1.65. Turning to GGGAAUGCUCCAAACGACATT against Bsg, the z-score was inactive: -0.383.

Turning to “GGAACUCAGUCAGGACCAATT against 0610008F07Rik”, the z-score was inactive: 0.986. As to GGUAUCUUUAGGUUUCUGGTT against V2r14, the z-score is inactive: -0.00592. For the sequence GGCUCUUUCACACCUGGUATT against Scgb3a2, the z-score is inactive: -0.915. As for GGAACUCCUCAAACGAAGGTT against Bmp3, the z-score was inactive: 0.312. On to “CGUGGACCUAUCCCACAAUTT against 9530051K01Rik”, for which the z-score is inactive: -0.879. For GGCAUGUAUCUCAACAUGUTT against Fuk, the z-score was inactive: 0.589. Take AACCAGUCCUUGAAAAGAGTT against Olfr128: the z-score was inactive: 1.98.

On to “CCUAAAAACUCUGGAUUCUTT against A630054L15Rik”, for which the z-score was inactive: 1.93.

For the sequence GCUGUCCCGAGCUGAACAATT against Nell2, the z-score was inactive: -0.838. For the sequence “GGAACUCGAGUUUAUCCAUTT against 1700020N01Rik”, the z-score was inactive: -1.04.

On to CCUAGGUCAUAUUUCUCCATT against Bgn, for which the z-score was inactive: 0.756. In the case of GGCAUAGGCAUUUUCAAAATT against Gucy2f, the z-score is inactive: 0.332. Turning to GGUUUUGGGUCUAUGCUUCTT against BC031781, the z-score was inactive: 0.579. With GCUUACAAGUUGCUACUGGTT against Dnajc8, the z-score was inactive: -0.635. GGUUAAAAAUAAUGUGGGCTT against Sval2: the z-score was inactive: 0.814. Consider GCUGUUGGUGGAAUGGAAGTT against Slc5a11, for which the z-score was inactive: 1.03.

As for “GGGAUCCAGUUGAGGAUCUTT against 5730467H21Rik”, the z-score is inactive: 1.34. For the sequence “CGUCCAGAGACCAUUAUAATT against D14Ertd581e”, the z-score was inactive: 1.37. Turning to GCAGGAUGUGACAGAUACATT against Pdcd2, the z-score is inactive: -2.09. Turning to GGGCAUGCAGAUAAAAUAATT against Akr1b8, the z-score is inactive: -1.7. As to CCAACUUCCAAGCUUAAAATT against Ucp3, the z-score was inactive: 0.451. Turning to GGACUGUUAGCUCGCUUUGTT against Pxmp3, the z-score was inactive: -0.0586. As to GGUUAAGGAAUAGUAACUCTT against LOC114601, the z-score is inactive: -0.326. In the case of GGGAGUGAAGUUUCACAGATT against Slamf6, the z-score was inactive: -0.0337. Consider CCACCUAUCUCUAACUACCTT against Mrpl40, for which the z-score is inactive: 0.593. Consider GGUCAGGCUGAGGAAUUCATT against Cyp2s1, for which the z-score was inactive: -0.897. For the sequence GAACUACCUGGACUUCCACTT against Cox6b, the z-score was inactive: 0.266.

With “GGGUACACCUUGCCGAUGUTT against B130008E12Rik”, the z-score is inactive: -0.0846. For “CCUAAUGCAGUCCAGAUGGTT against 4930432J16Rik” the value was inactive: -3.08; for UCACUUGAGUUGACCAACATT against Olfr1347, inactive: -0.35; for GCACAACAGCUAGCAAAUATT against Gm347, inactive: -1.08. For GGAUAUAGAGCUAAGUAAGTT against Dgka the value was inactive: -0.0954. Take GCCGGAAGAAACUCAUGCUTT against Mad2l1bp: the z-score was inactive: -0.104. GGCCCAGAACAAGAUCAAGTT against Ldb3: the z-score is inactive: 0.159. As to GAUGCUAACCAACCUUGGATT against Olfr134, the z-score was inactive: -0.129. Consider CGCGCUGAUAUUAACGGUGTT against Olfr70, for which the z-score is inactive: -0.579. Regarding GGUGGCUAUGGAAACUACCTT against Thrap3, the z-score is inactive: -2.03. For the sequence “GCUAACAGGUCAUUUAUCCTT against 2310075C12Rik”, the z-score is inactive: 0.391. For GCCUAUUUCCGUGAACCCGTT against Mgmt the value was inactive: -0.718. For GGAGGAAUUUCAGUUUCUGTT against Pml the value was inactive: 0.306. Consider CCGAUCUUUCCCUUAUCUUTT against Vamp2, for which the z-score is inactive: -0.314.

As to GGACCAUUUUCUAACAGACTT against Slc12a9, the z-score was inactive: 1.03. For “GCAACGGAGCGGAAAAGAATT against D230039L06Rik” the value was inactive: -2.44.

As to GGAUUUACUGUGGUAUGGGTT against Slc16a13, the z-score is inactive: 0.915.

Regarding “GCAGUACUAAGGAAGAUAUTT against 4921532K09Rik”, the z-score is inactive: -0.416. Regarding GGAAACCUGUUUGAUUUUGTT against Aasdhppt, the z-score is inactive: 1.07.

GCUUCAGGAAGAGUUGCAGTT against Asb7: the z-score is inactive: 0.339. Consider “GGUAAGAAAACUGACCUUATT against C130068O12Rik”, for which the z-score was inactive: -1.37.

Turning to GGUAAUGCCCUAUACUUCATT against Sgcd, the z-score is inactive: -1.73. For GGAGCAUCCUGGCAAACAGTT against Ostb the value was inactive: -1.64. On to GGAACUUAAUGACUCUGUGTT against Fv1, for which the z-score was inactive: -0.00429.

Take GGAAGAUAUUCACAGGGUATT against Wnt9b: the z-score is inactive: -1.33. For the sequence GCAUUUCCUGUGGUCUAUGTT against Itlnb, the z-score was inactive: -1.51.

In the case of GGUCUUUAUCUACCAUGGGTT against Itga7, the z-score is inactive: -0.0997. Regarding GGACGGACAAAUUGAUGCUTT against Sri, the z-score was inactive: -0.434. With GGUGGAAUACUUGGAGCAGTT against Gstm4, the z-score was inactive: 0.295.

CCUGCAUUAUUUAUGAAAGTT against Mfap3l: the z-score was inactive: -1.49. Take GGAGGAUGCUGCCUAUGACTT against B4galt2: the z-score was inactive: -0.428. On to GGCGGUUUUAGUGAAUAACTT against Golph2, for which the z-score is inactive: 0.0942. With “GGGCAAUCUGCUAUUCUCUTT against C920005C14Rik”, the z-score was inactive: -0.755.

GCCGUGUUCAUGAAUAAACTT against Glce: the z-score was inactive: 0.0698.

Take GUUCCCGUUCUACGAGAAGTT against Foxl2: the z-score is inactive: 1.76. Turning to GGAAGGACAACACUGCACCTT against Tnfrsf5, the z-score was inactive: 0.657. For GGUCACCAUAGAUCGGCAATT against Slamf7 the value was inactive: -1.04; for GGGACUGCUAGUAAAGUUCTT against Cabin1, inactive: -0.712. Take GCAAUGGACACUGUAUCAATT against Gab2: the z-score was inactive: 1.5. For the sequence GGCGGGUUUGCUGAAUAACTT against BC004853, the z-score is inactive: 0.88. Regarding CGAGAGCGAGUGAAAGAAGTT against Eif4enif1, the z-score was inactive: -1.67. Consider GCGAUAUUGACUGUGUAUATT against Ypel5, for which the z-score was inactive: -0.143. Take GGAAAAAGUUCCAAAAGAATT against Kif21b: the z-score was inactive: -1.46.

Source of the values: PubChem BioAssay AID1347423 (Functional Genomics Laboratory (NCATS/FGL), 2020).
